Article PMC9525610

The chains behind the UniProt entries cited, without tags or fusion partners.
UniProt Q9NRC8: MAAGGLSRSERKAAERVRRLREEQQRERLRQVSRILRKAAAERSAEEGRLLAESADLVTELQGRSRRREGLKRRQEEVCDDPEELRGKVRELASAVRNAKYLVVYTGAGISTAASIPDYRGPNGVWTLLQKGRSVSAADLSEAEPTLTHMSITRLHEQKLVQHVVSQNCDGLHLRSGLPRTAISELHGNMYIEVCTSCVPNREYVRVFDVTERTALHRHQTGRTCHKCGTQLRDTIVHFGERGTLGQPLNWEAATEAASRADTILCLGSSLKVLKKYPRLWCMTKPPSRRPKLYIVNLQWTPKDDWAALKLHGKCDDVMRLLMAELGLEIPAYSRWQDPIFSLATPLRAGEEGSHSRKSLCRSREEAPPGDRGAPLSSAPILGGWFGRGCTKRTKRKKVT

Target: Flag-SIRT7 (UniProt Q9NRC8)
Experiment: affinity purification with mass spectrometry; Flag-SIRT7 complex pulled down from HEK293T cells by anti-Flag immunomagnetic beads; SDS-PAGE, Coomassie staining, differential band cut for LC-MS/MS

B1: O-GlcNAc transferase (OGT), endogenous in HEK293T (enzyme, UniProt O15294 1-1046)
chain: MASSVGNVADSTEPTKRMLSFQGLAELAHREYQAGDFEAAERHCMQLWRQEPDNTGVLLLLSSIHFQCRRLDRSAHFSTLAIKQNPLLAEAYSNLGNVYKERGQLQEAIEHYRHALRLKPDFIDGYINLAAALVAAGDMEGAVQAYVSALQYNPDLYCVRSDLGNLLKALGRLEEAKACYLKAIETQPNFAVAWSNLGCVFNAQGEIWLAIHHFEKAVTLDPNFLDAYINLGNVLKEARIFDRAVAAYLRALSLSPNHAVVHGNLACVYYEQGLIDLAIDTYRRAIELQPHFPDAYCNLANALKEKGSVAEAEDCYNTALRLCPTHADSLNNLANIKREQGNIEEAVRLYRKALEVFPEFAAAHSNLASVLQQQGKLQEALMHYKEAIRISPTFADAYSNMGNTLKEMQDVQGALQCYTRAIQINPAFADAHSNLASIHKDSGNIPEAIASYRTALKLKPDFPDAYCNLAHCLQIVCDWTDYDERMKKLVSIVADQLEKNRLPSVHPHHSMLYPLSHGFRKAIAERHGNLCLDKINVLHKPPYEHPKDLKLSDGRLRVGYVSSDFGNHPTSHLMQSIPGMHNPDKFEVFCYALSPDDGTNFRVKVMAEANHFIDLSQIPCNGKAADRIHQDGIHILVNMNGYTKGARNELFALRPAPIQAMWLGYPGTSGALFMDYIITDQETSPAEVAEQYSEKLAYMPHTFFIGDHANMFPHLKKKAVIDFKSNGHIYDNRIVLNGIDLKAFLDSLPDVKIVKMKCPDGGDNADSSNTALNMPVIPMNTIAEAVIEMINRGQIQITINGFSISNGLATTQINNKAATGEEVPRTIIVTTRSQYGLPEDAIVYCNFNQLYKIDPSTLQMWANILKRVPNSVLWLLRFPAVGEPNIQQYAQNMGLPQNRIIFSPVAPKEEHVRRGQLADVCLDTPLCNGHTTGMDVLWAGTPMVTMPGETLASRVAASQLTCLGCLELIAKNRQEYEDIAVKLGTDLEYLKKVRGKVWKQRISSPLFNTKQYTMELERLYLQMWEHYAAGNKPDHMIKPVEVTESA
binding: binds

These are yes or no findings as the source states them, for the method shown. In cells and extracts the contact can be indirect. Here binding means that the protein was enriched with, or labelled near, the bait; the list need not be complete.
